These results are taken from article doi:10.1101/2021.11.18.469142.

Chains of the proteins cited; added tags and fusions are not shown.
UniProt Q15672: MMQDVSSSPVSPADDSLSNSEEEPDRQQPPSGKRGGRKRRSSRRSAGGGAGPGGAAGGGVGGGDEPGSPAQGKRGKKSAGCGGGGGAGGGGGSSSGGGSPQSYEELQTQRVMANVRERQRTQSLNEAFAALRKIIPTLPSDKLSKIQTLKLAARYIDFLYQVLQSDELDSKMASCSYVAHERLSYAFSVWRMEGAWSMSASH

Where two headings read alike, the source gives them in different places. These are yes or no findings as the source states them, for the method shown. For some of these results: In cells and extracts the contact can be indirect. Some entries that bind do so weakly or less than the wild type. Sequences can lack the tags named with a protein.

For one assay, the target named is T1, His-SLUG (UniProt O43623).
T1 sequence: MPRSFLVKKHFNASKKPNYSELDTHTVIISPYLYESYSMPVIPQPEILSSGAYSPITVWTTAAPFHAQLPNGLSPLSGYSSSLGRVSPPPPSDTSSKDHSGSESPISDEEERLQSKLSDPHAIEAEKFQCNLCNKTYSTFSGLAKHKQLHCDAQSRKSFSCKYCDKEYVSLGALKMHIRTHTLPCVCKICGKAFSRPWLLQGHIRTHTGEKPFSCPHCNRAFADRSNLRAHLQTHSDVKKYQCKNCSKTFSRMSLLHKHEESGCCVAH
The assay can be described thus: ELISA. On the technique in general: In an ELISA, binding on a coated surface is turned into a signal by an enzyme label.

For the next assay, the target named is His-TWIST1 WT (human) (UniProt Q15672). In words: ELISA.
Assay [1] deals with FLAG-TWIST1 WT (human) (UniProt Q15672). The assay can be described thus: co-IP.
The target is the same in assay [2]. The assay can be described thus: co-IP. The source holds these as a separate data set.

B1: GST-SETD6 (SET domain-containing protein 6) (enzyme, UniProt Q8TBK2 1-473)
chain: MATQAKRPRVAGPVDGGDLDPVACFLSWCRRVGLELSPKVSERAGGRRTRGGARAALTSPPAQVAVSRQGTVAGYGMVARESVQAGELLFVVPRAALLSQHTCSIGGLLERERVALQSQSGWVPLLLALLHELQAPASRWRPYFALWPELGRLEHPMFWPEEERRCLLQGTGVPEAVEKDLANIRSEYQSIVLPFMEAHPDLFSLRVRSLELYHQLVALVMAYSFQEPLEEEEDEKEPNSPVMVPAADILNHLANHNANLEYSANCLRMVATQPIPKGHEIFNTYGQMANWQLIHMYGFVEPYPDNTDDTADIQMVTVREAALQGTKTEAERHLVYERWDFLCKLEMVGEEGAFVIGREEVLTEEELTTTLKVLCMPAEEFRELKDQDGGGDDKREEGSLTITNIPKLKASWRQLLQNSVLLTLQTYATDLKTDQGLLSNKEVYAKLSWREQQALQVRYGQKMILHQLLELTS
Turning to B1, the binding entry with His-SLUG and with His-TWIST1 WT (human) was “binds” throughout.

B2: HA-SETD6 (enzyme, UniProt Q8TBK2 1-473)
chain: MATQAKRPRVAGPVDGGDLDPVACFLSWCRRVGLELSPKVSERAGGRRTRGGARAALTSPPAQVAVSRQGTVAGYGMVARESVQAGELLFVVPRAALLSQHTCSIGGLLERERVALQSQSGWVPLLLALLHELQAPASRWRPYFALWPELGRLEHPMFWPEEERRCLLQGTGVPEAVEKDLANIRSEYQSIVLPFMEAHPDLFSLRVRSLELYHQLVALVMAYSFQEPLEEEEDEKEPNSPVMVPAADILNHLANHNANLEYSANCLRMVATQPIPKGHEIFNTYGQMANWQLIHMYGFVEPYPDNTDDTADIQMVTVREAALQGTKTEAERHLVYERWDFLCKLEMVGEEGAFVIGREEVLTEEELTTTLKVLCMPAEEFRELKDQDGGGDDKREEGSLTITNIPKLKASWRQLLQNSVLLTLQTYATDLKTDQGLLSNKEVYAKLSWREQQALQVRYGQKMILHQLLELTS
For B2, the binding entry with FLAG-TWIST1 WT (human) [1] and with FLAG-TWIST1 WT (human) [2] was “binds” each time.
